Measurements from article doi:10.1101/325712 (bioRxiv, 2018).
These are yes or no findings as the source states them, for the method shown. Some results given as binding are weak or reduced against the parent protein; the word gives no strength. For some assays here: Sequences can lack the tags named with a protein.

Sequences of proteins named here, by UniProt entry; tags and fusion partners are left off. Residues count along the entry.
UniProt P04792, residues 84-171: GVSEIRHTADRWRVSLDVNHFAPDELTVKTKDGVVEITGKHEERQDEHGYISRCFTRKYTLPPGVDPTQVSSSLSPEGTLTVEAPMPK

Tests used:
[1] = target: T1, human FLNC domains 18-21 (residues 1943-2408), EEF-tagged (human) (UniProt Q14315); experiment: native MS
T1 sequence: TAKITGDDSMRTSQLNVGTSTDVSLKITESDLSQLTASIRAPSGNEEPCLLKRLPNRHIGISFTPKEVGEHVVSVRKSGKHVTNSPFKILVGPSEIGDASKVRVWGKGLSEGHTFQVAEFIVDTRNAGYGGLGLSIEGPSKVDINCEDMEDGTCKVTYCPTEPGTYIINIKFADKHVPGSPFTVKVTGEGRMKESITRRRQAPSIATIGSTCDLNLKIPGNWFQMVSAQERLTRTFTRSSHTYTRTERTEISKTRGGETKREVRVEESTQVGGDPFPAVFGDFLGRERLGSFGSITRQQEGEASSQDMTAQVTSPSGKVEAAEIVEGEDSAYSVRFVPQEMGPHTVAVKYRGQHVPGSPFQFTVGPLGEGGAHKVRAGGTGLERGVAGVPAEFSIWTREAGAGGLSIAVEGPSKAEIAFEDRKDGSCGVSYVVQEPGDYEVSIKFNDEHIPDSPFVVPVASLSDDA

[2] = target: T2, human FLNC domains 18-21 lacking the d20 insertion (residues 1943-2408 excluding 2163-2243) (human) (UniProt Q14315); experiment: native MS
T2 sequence: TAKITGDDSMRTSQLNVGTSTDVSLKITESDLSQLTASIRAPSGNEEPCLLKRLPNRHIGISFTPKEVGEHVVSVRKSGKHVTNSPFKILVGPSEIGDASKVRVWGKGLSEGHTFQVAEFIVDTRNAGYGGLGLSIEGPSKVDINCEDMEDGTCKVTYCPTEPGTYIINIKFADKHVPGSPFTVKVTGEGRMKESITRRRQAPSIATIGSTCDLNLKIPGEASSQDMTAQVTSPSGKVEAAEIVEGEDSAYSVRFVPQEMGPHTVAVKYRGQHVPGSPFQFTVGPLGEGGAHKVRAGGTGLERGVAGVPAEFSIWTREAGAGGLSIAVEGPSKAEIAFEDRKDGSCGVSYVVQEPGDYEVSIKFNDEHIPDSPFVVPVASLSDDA

Question: With “HspB1 peptide residues 80-88, phosphorylated (from UniProt P04792 80-88)” as the substance, how does the binding [1] read?
Answer: Its binding is “binds weakly”.

Question: How did the binding [1] turn out when “peptide mimicking HspB1 C-terminal residues 177-186 (from UniProt P04792 177-186)” was run?
Answer: Its binding is “no binding”.

Question: With “human HspB1 ACD (residues 84-171) (from UniProt P04792 84-171) (domain or fragment)” as the substance, how does the binding [1] read?
Answer: The binding was “no binding”.

Question: “HspB1 peptide residues 80-88, unphosphorylated (from UniProt P04792 80-88)” was tested. Which binding [1] did it give?
Answer: The binding was “binds weakly”.

Question: What about the binding [2] of the same substance?
Answer: Its binding is “binds”.
